Counter-ions that a name gives are not always drawn. This is one part of the list. Single values are uncertain here, since repeats match poorly.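 In a drug-repurposing library screen, luminescence reads luciferase driven by eight TEAD-binding elements, stably integrated into human kidney-derived cells. Compounds scoring over five robust Z scores above the plate mean are called hits.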
System: HEK293A TEAD-LUC reporter
Assay: TEAD-luciferase reporter activity (YAP activation), robust Z score vs plate; higher = stronger YAP/TEAD activation
Details: 24 h

SMILES | TEAD-luciferase reporter activity (compound concentration: 200 nM) | TEAD-luciferase reporter activity (compound concentration: 2 uM) | TEAD-luciferase reporter activity (compound concentration: 10 uM)
C[C@H](Cc1ccc2c(c1)OC(C(=O)O)(C(=O)O)O2)NC[C@H](O)c1cccc(Cl)c1 | inactive: 2.97 | inactive: -0.0268 | inactive: 0.345
OC[C@H]1O[C@@H](n2cnc3cc(Cl)c(Cl)cc32)[C@@H](O)C1O (stereo not given in full) | inactive: -1.82 | inactive: -0.248 | active: 6.54
C[C@]1(O)CC[C@H]2[C@@H]3CCC4=CC(=O)CCC4=C3C=C[C@@]21C | inactive: -0.997 | inactive: 1.42 | inactive: 1.05
NC(=O)C(CCN1CCN2CCCC2C1)(c1ccccc1)c1ccccc1 (stereo not given) | inactive: -1.06 | inactive: -0.288 | inactive: 0.194
NP(N)(=O)NC(=O)c1ccc(F)cc1 [flurofamide] | inactive: 2.62 | inactive: -1.72 | inactive: 0.747
Cc1ncc2n1-c1ccc(Cl)cc1C(c1ccccc1F)=NC2 [Midazolam Hydrochloride] | inactive: -2.4 | – | inactive: 2.58
c1cn(-c2cc(NC3=NCC4(CN5CCC4CC5)O3)ncn2)cn1 (stereo not given) | inactive: 0.844 | inactive: -0.0678 | inactive: 3.91
CN1C(=O)CN=C(C2=CCCCC2)c2cc(Cl)ccc21 | inactive: -0.357 | inactive: 0.185 | inactive: -0.343
CCN(CC)CCN1C(=O)[C@](O)(c2ccccc2Cl)c2c1cc(C(N)=O)cc2C(F)(F)F | inactive: -1.19 | inactive: 1.16 | inactive: -0.266
CCC1(CC)C(=O)NC(=S)NC1=O | inactive: -0.464 | inactive: -1.47 | inactive: -0.052
O=C(O)C(=O)CBr [3-Bromopyruvate] | inactive: 0.124 | inactive: -0.278 | inactive: -1.37
CCCC[C@H]1CC[C@H](C(=O)O[C@H]2CCC3C4CCC5=CC(=O)CCC5(C)C4CCC32C)CC1 (stereo not given in full) [Testosterone buciclate] | inactive: -0.412 | inactive: -0.691 | inactive: -0.81
CC(=O)OC1CC(OC2C(O)CC(OC3C(O)CC(OC4CCC5(C)C(CC[C@@H]6[C@@H]5CCC5(C)C(C7=CC(=O)OC7)CCC65O)C4)OC3C)OC2C)OC(C)C1OC1OC(CO)C(O)C(O)C1O (stereo not given in full) | active: 16 | inactive: -2.21 | active: 16.5
O=[N+]([O-])[O][Ga]([O][N+](=O)[O-])[O][N+](=O)[O-] [Gallium(III) nitrate hydrate] | inactive: 2.55 | inactive: 2.39 | inactive: -0.73
CN1C(=O)C(O)N=C(c2ccccc2F)c2cc(Cl)ccc21 (stereo not given) | inactive: -1.38 | inactive: 0.179 | inactive: -1.17
CN1C(=O)CCS(=O)(=O)C1c1ccc(Cl)cc1 (stereo not given) [Chlormeza] | inactive: -1.39 | inactive: -0.968 | inactive: -1.18
[N-]=[N+]=CC(=O)CC[C@H](N)C(=O)O | inactive: -0.0803 | inactive: -1.64 | inactive: -0.238
CN(C)C(=O)Oc1ccc2c(c1)[nH]c(=O)c1c3ccc(OC(=O)N(C)C)cc3oc21 | inactive: 0.301 | inactive: -1.58 | inactive: 1.18
CCN[C@@H](C)Cc1cccc(C(F)(F)F)c1 [(+)-Fenfluramine hydrochloride] | inactive: -1.45 | – | inactive: -0.0472
O=C(OC1c2nccnc2C(=O)N1c1ccc(Cl)cn1)N1CCNCC1 (stereo not given) | inactive: 0.464 | inactive: -0.268 | inactive: -0.342
O=C1C=C(N2CC2)C(=O)C(N2CC2)=C1N1CC1 | inactive: -1.23 | inactive: -1.28 | inactive: -0.253
O=C(NC(=O)c1cc(F)c(F)cc1Cl)Nc1ccc(C(=O)O)cc1OC(F)(F)F | inactive: 2.93 | inactive: -1.07 | inactive: -0.889
COC1CC(=C(c2cccs2)c2cccs2)C[N+](C)(C)C1 (stereo not given) | inactive: 0.315 | inactive: -0.687 | inactive: 1.66
COP(=S)(OC)Oc1ccc(S(=O)(=O)N(C)C)cc1 [Famphur] | inactive: -1.24 | inactive: -0.325 | inactive: -0.646
CN1CC=C(c2c[nH]c3ccccc23)CC1 | inactive: 0.349 | inactive: -1.14 | inactive: 0.889
CCOC(=O)[C@H](Cc1ccc(F)cc1)NC(=O)[C@@H](N)Cc1ccc(N(CCCl)CCCl)cc1 | inactive: -0.44 | inactive: 0.825 | inactive: -2.33
CC1COC(c2cccc(C(F)(F)F)c2)CN1 (stereo not given) | inactive: 1.48 | inactive: 0.571 | inactive: 1.53

SMILES | TEAD-luciferase reporter activity (compound concentration: 200 nM) | TEAD-luciferase reporter activity (compound concentration: 2 uM) | TEAD-luciferase reporter activity (compound concentration: 10 uM)
CCN(CC)CCNC(=O)C(O)(c1ccccc1)c1ccccc1 | inactive: 3.59 | inactive: -0.686 | inactive: -0.186
COC(=O)[C@]12CN(C)C[C@](C(=O)OC)(C1=O)[C@@H](c1ccccn1)N(C)[C@H]2c1ccccn1 | inactive: -0.897 | inactive: -1.45 | inactive: -0.426
C=CCC1(CC(C)O)C(=O)NC(=O)NC1=O (stereo not given) | inactive: -1.08 | inactive: -1.21 | inactive: 2.55
C[N+]1(C)C2C=CC1CC(OC(=O)C(O)(c1cccs1)c1cccs1)C2 (stereo not given) | inactive: -1.71 | inactive: -1.1 | inactive: 1.55
CN(C)CCc1ccc(O)cc1 | inactive: -0.509 | inactive: 3.67 | inactive: -0.221
CC(N)C(=O)NC(CO)C(=O)NC(C(=O)NC(C(=O)NC(C(=O)NC(CC(N)=O)C(=O)NC(Cc1ccc(O)cc1)C(=O)NC(C(=O)O)C(C)O)C(C)O)C(C)O)C(C)O (stereo not given) [Peptide T] | inactive: 0.885 | inactive: -1.4 | inactive: 0.992
ClCC[N+]12CC[N+](CCCl)(CC1)C2 [DABIS maleate] | inactive: -1.4 | inactive: 2.12 | inactive: 0.775
COC(=O)CC[C@@H]1N=C(c2ccccn2)c2cc(Br)ccc2-n2c(C)cnc21 [remimazolam tosylate] | inactive: 1.53 | inactive: -0.466 | inactive: -0.55
CO[C@H]1[C@@H](O)C[C@H](O[C@H]2[C@@H](O)C[C@H](O[C@H]3[C@@H](O)C[C@H](O[C@H]4CC[C@@]5(C)[C@H](CC[C@@H]6[C@@H]5C[C@@H](O)[C@]5(C)[C@@H](C7=CC(=O)OC7)CC[C@]65O)C4)O[C@@H]3C)O[C@@H]2C)O[C@@H]1C [Metildigoxin] | active: 8.48 | inactive: -2.66 | active: 11.5
CCCC[C@@H](NC(=O)[C@@H](Cc1ccccc1)NC(=O)[C@H](N)Cc1ccccc1)C(=O)N[C@H](CCCNC(=N)N)C(=O)NCc1ccncc1 | inactive: -0.656 | inactive: -0.272 | inactive: 0.105
Cc1cccc(C)c1NC(=O)CN1CCCC1=O [Nefiracetam] | inactive: -0.605 | inactive: -2.69 | active: 7.89
FC(F)(F)c1ccc2c(c1)[C@@H]1CNC[C@H]2C1 | inactive: -0.518 | inactive: -0.638 | inactive: -1.95
CNS(=O)(=O)Cc1ccc2[nH]cc(C[C@H]3CCCN3C)c2c1 | inactive: -1.12 | inactive: -0.00845 | inactive: 4.93
NC(=O)OC[C@H](N)Cc1ccccc1 | inactive: 0.219 | inactive: -1.24 | inactive: -1.02
CO[C@H]1[C@@H](O)[C@@H](C)O[C@H](O[C@H]2[C@H](Oc3cccc4c(O)c5c(=O)oc6ccc(C)c7c(=O)oc(c34)c5c67)O[C@H](C)[C@H](O)[C@@H]2O)[C@@H]1O | inactive: 3.8 | inactive: -1.17 | inactive: 3.4
C=C(C(=O)OC1CC2CCC(C1)N2C)c1ccccc1 (stereo not given) | inactive: -1.24 | inactive: -0.0651 | inactive: -1.33
O=C(O)C(Cl)(Cl)Cl | inactive: 3.87 | inactive: -0.861 | inactive: 1.03
O=P1(N(CCCl)CCCl)NC(OO)CCO1 (stereo not given) [perfosfamide] | inactive: -1.02 | inactive: 0.0514 | inactive: -0.777
O=c1c2ccccc2[se]n1-c1ccccc1 [ebselen] | inactive: -0.417 | inactive: -0.385 | inactive: 0.677
O=C1CN=C(c2ccc[nH]2)c2cc(Cl)ccc2N1 | inactive: -1.57 | inactive: -3 | inactive: -0.0691
CC[C@@H](C(=O)Oc1c(OC)cc(C)cc1OC)N(CCOC)CCOC | inactive: -1.18 | inactive: -0.875 | inactive: 1.13
COc1ccc([C@@H](O)[C@@H](N)c2ccccc2)cc1 | inactive: -2.11 | inactive: -1.3 | inactive: 1.21
COc1ccc(C[C@@H](C)NC[C@H](O)c2ccc(O)c3nc(O)ccc23)cc1 [Carmoterol] | inactive: 0.134 | inactive: -1.14 | inactive: -2.65
CC(C)(O)C(=O)Nc1ccc([N+](=O)[O-])c(C(F)(F)F)c1 [2-Hydroxyflutamide] | inactive: 0.768 | inactive: -1.61 | inactive: 3.13
Cc1cc(O)cc(C)c1C[C@H](NC(=O)[C@H](N)CCCNC(=N)N)C(=O)N[C@@H](CCCCN)C(=O)N[C@@H](Cc1ccccc1)C(N)=O [Elamipretide] | inactive: -1.15 | inactive: 1.09 | inactive: -1.44
CC(C)(N)CC12CC3CC(CC(C3)C1)C2 [somantadine] | inactive: 0.463 | inactive: -1.12 | inactive: -1.77
CNC1CCc2[nH]c3ccccc3c2C1 (stereo not given) | inactive: 1.5 | inactive: -0.182 | inactive: -0.893

Part of the list above in a different format:
SMILES	TEAD-luciferase reporter activity (compound concentration: 200 nM)	TEAD-luciferase reporter activity (compound concentration: 2 uM)	TEAD-luciferase reporter activity (compound concentration: 10 uM)
CO[C@H]1[C@@H](O)[C@@H](C)O[C@H](O[C@H]2[C@H](Oc3cccc4c(O)c5c(=O)oc6ccc(C)c7c(=O)oc(c34)c5c67)O[C@H](C)[C@H](O)[C@@H]2O)[C@@H]1O	inactive: 3.8	inactive: -1.17	inactive: 3.4
C=C(C(=O)OC1CC2CCC(C1)N2C)c1ccccc1 (stereo not given)	inactive: -1.24	inactive: -0.0651	inactive: -1.33
O=C(O)C(Cl)(Cl)Cl	inactive: 3.87	inactive: -0.861	inactive: 1.03

From the supplement of paper PMC10735217
